This is one part of the list.
Tests used:
Assay in all cases: log2 fold change, soluble protein after heating vs DMSO (PISA); higher = thermal stabilisation; K562 lysate, 10 uM; active = over 0.2 and 3.5 SD of the protein, either way, in both replicates (recomputed)
ibrutinib = compound: C=CC(=O)N1CCC[C@@H](n2nc(-c3ccc(Oc4ccccc4)cc3)c3c(N)ncnc32)C1 [ibrutinib]
Outline: (§1)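 To prepare the extract, K562 pellets were dounce-homogenised in PBS pH 7.4 with 1 mM MgCl2, giving crude material at 1 mg/mL protein. This was treated with 10 μM compound for 30 min, then heated in aliquots for 3 min over 48°C-58°C before pooling and addition of NP-40 to 0.5% at 4°C. Centrifugation at 21,000xg for 90 min left soluble protein in the supernatant, which TMTpro 16plex LC-MS/MS quantified with equalised channel sums. Results are log-two fold changes in thermal stability compared with solvent controls, from duplicates.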

By UniProt entry, the sequences of proteins in these tests, tags left out. Where a name states a change or a piece, a line headed by the entry shows the natural chain unless it says otherwise.
UniProt O94782: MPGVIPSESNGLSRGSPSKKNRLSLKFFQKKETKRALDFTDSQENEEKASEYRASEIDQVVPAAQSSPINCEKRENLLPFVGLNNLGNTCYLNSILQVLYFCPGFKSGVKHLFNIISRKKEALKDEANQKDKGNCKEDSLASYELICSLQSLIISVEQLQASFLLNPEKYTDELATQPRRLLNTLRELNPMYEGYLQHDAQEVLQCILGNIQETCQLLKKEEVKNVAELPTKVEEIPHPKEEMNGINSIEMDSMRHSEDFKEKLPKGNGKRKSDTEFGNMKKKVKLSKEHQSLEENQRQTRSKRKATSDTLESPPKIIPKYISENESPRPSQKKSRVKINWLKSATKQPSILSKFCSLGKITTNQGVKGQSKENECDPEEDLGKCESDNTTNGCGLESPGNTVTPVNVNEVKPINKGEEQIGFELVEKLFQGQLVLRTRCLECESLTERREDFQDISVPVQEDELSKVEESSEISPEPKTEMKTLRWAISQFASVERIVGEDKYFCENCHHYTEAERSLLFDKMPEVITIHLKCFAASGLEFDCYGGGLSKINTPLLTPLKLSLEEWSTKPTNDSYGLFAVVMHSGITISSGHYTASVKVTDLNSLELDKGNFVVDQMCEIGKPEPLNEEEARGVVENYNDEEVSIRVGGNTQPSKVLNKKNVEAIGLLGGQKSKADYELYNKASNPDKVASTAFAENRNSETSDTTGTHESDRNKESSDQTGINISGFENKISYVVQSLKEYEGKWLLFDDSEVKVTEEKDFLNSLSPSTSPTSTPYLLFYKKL
UniProt Q8NFA0: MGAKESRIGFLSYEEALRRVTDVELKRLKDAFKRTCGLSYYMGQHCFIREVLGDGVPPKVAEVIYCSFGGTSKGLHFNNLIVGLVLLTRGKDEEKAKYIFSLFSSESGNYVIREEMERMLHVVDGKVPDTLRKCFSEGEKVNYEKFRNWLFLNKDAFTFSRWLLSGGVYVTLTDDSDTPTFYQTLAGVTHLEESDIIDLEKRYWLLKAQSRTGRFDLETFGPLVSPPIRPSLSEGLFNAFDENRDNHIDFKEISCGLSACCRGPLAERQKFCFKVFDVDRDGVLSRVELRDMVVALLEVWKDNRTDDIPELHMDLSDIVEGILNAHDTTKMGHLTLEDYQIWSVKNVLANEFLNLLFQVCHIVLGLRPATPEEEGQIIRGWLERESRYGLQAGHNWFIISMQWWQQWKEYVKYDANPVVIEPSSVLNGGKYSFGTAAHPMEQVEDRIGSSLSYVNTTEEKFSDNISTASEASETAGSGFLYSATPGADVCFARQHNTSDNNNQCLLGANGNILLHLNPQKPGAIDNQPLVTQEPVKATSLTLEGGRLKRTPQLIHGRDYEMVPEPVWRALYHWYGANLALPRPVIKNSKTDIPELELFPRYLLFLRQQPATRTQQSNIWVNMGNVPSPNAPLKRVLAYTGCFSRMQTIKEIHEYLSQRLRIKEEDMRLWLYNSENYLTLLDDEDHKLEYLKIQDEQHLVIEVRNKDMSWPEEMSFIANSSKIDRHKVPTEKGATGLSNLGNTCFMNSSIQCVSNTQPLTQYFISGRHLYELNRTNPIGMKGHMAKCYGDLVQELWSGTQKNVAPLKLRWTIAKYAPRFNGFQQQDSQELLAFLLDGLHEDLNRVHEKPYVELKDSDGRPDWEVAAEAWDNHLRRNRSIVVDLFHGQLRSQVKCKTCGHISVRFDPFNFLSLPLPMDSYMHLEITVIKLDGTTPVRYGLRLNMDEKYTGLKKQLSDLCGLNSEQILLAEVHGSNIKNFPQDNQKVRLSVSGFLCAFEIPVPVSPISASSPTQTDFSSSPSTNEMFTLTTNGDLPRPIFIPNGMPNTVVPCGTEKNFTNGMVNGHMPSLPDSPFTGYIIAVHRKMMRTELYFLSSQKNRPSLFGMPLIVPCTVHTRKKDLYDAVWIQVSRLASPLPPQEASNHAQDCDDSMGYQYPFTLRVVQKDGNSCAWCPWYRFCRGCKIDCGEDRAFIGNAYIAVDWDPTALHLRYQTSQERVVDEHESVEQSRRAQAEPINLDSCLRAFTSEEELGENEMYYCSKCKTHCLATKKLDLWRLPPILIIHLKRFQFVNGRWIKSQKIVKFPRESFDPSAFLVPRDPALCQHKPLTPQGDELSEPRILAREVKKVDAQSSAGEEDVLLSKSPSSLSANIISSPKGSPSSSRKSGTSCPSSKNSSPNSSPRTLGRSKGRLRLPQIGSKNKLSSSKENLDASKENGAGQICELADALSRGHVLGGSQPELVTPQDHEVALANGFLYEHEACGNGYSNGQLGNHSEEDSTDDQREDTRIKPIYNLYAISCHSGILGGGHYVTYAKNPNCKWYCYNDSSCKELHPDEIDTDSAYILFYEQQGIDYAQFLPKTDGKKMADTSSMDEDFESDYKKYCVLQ
UniProt P10746: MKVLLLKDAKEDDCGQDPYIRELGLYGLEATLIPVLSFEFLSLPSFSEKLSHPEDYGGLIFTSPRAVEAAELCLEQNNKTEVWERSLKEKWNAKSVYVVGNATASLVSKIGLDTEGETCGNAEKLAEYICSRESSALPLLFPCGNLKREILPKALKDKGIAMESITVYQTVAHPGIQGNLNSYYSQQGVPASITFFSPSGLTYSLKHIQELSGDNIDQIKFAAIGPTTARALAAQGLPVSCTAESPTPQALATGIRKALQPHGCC
UniProt Q16851: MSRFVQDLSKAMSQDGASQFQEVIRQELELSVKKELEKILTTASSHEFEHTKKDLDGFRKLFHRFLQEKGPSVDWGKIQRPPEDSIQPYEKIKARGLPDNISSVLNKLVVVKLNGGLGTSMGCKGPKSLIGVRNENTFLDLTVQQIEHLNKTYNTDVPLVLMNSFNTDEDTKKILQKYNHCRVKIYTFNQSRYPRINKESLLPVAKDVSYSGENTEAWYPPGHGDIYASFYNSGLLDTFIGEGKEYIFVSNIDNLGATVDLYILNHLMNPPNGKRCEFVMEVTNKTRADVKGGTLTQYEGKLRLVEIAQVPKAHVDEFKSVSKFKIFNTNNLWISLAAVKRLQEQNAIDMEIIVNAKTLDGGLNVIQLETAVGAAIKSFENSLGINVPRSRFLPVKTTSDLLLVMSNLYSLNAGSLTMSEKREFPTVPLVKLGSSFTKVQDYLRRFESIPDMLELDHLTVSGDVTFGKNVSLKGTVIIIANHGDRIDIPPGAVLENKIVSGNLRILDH
UniProt P51809, whole entry, looked up: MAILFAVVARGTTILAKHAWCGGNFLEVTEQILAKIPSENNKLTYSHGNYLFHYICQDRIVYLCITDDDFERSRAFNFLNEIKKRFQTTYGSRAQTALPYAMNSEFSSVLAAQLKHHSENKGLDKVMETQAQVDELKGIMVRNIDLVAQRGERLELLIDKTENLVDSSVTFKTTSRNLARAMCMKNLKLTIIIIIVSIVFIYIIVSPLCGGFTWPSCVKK
UniProt Q96RL1: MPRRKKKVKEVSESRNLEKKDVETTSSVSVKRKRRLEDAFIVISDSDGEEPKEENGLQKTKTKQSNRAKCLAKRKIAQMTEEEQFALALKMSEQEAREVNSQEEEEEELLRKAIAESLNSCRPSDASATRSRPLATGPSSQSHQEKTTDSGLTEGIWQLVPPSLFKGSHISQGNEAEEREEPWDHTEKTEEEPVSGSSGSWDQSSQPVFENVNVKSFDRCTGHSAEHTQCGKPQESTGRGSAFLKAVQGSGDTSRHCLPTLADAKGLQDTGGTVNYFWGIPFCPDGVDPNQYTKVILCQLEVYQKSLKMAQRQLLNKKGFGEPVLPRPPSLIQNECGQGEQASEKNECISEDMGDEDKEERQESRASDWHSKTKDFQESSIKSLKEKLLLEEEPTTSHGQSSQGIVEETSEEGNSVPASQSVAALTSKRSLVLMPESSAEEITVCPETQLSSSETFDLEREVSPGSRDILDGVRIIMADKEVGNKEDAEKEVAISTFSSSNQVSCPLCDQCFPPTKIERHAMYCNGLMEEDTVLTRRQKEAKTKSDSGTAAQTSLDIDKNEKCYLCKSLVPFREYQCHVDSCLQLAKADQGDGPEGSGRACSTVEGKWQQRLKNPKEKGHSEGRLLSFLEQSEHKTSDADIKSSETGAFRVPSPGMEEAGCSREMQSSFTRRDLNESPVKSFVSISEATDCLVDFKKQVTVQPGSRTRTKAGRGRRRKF
UniProt Q9Y5T5, whole entry, looked up: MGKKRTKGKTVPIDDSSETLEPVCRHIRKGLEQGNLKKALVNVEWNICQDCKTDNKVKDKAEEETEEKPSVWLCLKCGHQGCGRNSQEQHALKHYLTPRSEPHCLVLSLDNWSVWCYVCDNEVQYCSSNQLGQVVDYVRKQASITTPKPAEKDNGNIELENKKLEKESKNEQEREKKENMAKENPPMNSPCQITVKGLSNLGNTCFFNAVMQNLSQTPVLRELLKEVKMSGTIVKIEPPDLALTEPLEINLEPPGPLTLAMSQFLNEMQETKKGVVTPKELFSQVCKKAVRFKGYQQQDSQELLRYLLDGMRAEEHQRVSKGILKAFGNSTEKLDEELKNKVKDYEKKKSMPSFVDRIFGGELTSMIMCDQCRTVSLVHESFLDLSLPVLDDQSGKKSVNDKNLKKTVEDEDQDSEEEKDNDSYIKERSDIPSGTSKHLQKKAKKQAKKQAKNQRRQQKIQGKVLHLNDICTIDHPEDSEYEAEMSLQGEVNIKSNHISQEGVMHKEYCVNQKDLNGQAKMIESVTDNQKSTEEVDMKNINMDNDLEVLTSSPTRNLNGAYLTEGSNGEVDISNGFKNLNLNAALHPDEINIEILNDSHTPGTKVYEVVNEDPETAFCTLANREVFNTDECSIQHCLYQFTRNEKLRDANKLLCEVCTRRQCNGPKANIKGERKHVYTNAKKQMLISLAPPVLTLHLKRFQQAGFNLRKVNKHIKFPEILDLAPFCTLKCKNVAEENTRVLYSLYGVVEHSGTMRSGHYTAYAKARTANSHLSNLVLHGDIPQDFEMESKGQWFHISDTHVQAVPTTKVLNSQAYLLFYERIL
UniProt P18206: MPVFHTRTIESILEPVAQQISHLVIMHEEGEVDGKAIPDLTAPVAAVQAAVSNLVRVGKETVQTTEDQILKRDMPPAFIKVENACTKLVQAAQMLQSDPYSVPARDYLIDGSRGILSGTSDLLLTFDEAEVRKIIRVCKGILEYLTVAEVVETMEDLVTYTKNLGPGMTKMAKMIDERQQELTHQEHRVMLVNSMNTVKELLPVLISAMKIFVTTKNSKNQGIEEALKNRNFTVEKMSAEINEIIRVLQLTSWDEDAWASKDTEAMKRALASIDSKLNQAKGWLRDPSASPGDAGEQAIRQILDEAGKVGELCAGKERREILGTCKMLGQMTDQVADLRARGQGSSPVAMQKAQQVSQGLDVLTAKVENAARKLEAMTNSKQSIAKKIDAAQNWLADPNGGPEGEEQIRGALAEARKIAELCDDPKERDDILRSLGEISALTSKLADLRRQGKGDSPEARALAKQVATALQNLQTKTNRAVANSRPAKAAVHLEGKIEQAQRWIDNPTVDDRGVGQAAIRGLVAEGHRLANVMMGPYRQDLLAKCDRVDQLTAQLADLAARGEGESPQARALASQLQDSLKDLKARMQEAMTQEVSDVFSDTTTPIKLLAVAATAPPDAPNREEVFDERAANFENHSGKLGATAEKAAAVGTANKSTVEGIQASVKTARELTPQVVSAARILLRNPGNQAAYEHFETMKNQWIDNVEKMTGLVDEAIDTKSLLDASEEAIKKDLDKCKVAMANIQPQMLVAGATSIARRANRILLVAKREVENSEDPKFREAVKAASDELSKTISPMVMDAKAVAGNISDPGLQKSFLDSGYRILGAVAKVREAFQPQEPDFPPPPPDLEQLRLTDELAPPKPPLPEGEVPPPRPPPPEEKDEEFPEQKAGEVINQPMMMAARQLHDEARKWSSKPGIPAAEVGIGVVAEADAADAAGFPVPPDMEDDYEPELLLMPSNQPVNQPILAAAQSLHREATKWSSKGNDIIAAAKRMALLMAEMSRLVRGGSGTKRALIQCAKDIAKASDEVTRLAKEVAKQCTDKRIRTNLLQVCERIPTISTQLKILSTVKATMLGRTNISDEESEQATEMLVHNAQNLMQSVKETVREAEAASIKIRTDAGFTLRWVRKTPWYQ
UniProt P06132: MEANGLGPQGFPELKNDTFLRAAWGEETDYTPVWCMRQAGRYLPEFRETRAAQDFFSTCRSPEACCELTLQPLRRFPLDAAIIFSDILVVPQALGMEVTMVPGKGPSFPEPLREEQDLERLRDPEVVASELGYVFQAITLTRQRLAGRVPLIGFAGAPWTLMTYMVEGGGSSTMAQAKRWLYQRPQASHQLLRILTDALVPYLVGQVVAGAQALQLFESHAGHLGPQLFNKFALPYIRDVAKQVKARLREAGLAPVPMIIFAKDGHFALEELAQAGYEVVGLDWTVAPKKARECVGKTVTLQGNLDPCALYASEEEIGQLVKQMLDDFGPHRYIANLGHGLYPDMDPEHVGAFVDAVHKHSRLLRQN
UniProt Q15836, whole entry, looked up: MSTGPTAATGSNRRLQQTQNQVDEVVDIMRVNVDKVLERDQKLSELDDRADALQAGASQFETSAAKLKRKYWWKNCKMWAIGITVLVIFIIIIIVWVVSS

[1] = compound: CC(=O)c1cnc2ccc(-c3cc(Cl)c(O)c(Cl)c3)nc2c1N[C@H]1CC[C@H](CN(C)C)CC1
Outline: as §1

ralimetinib = compound: CC(C)(C)Cn1c(N)nc2ccc(-c3[nH]c(C(C)(C)C)nc3-c3ccc(F)cc3)nc21 [ralimetinib]
Outline: as §1

[2] = compound: CC(C)(O)CC(=O)NCCn1ccc2ncnc(Nc3ccc(Oc4cccc(C(F)(F)F)c4)c(Cl)c3)c21
Outline: as §1

[3] = compound: CC(C)C1=C2N=C(C=C(N2N=C1)NCC3=CC=CC=C3)NCCCCCCN
Outline: as §1

[4] = compound: CC1=C(C(CC(=O)N1)C2=CC=C(C=C2)C(F)(F)F)C(=O)NC3=C(C=C4C(=C3)C=NN4)F
Outline: as §1

[5] = compound: CC1=C(C2=C(C=C1)C(=O)C3=CC=CC=C3N2CCCN)C
Outline: as §1

[6] = compound: CC1=C(C=C(C=C1)NC(=O)C2=CC(=CC=C2)C(C)(C)C#N)NC3=CC4=C(C=C3)N=CN(C4=O)C
Outline: as §1

[7] = compound: CC1=C(C=C(C=C1)NC(=O)C2=CC(=CC=C2)N(C)C)NC(=O)C3=CC=C(C=C3)O
Outline: as §1

[8] = compound: CC1=CC=C(C=C1)SC2=C3C=C(SC3=CN=C2)C(=O)N
Outline: as §1

Measured: log2 fold change

USP9X (UniProt Q93008)
inactive: ibrutinib -0.003 | [1] 0.001 | ralimetinib 0.025 | [2] -0.024 | [3] -0.032 | [4] -0.008 | [5] 0.009 | [6] -0.021 | [7] 0.043 | [8] 0.011

UQCRH (UniProt P07919)
inactive: ibrutinib 0.08 | [1] -0.014 | ralimetinib 0.081 | [2] 0.019 | [3] -0.053 | [4] 0.011 | [5] 0.047 | [6] 0.01 | [7] -0.003 | [8] -0.01

UHRF1BP1 (UniProt Q6BDS2)
inactive: ibrutinib 0 | [1] -0.05 | ralimetinib 0.052 | [2] 0.038 | [3] 0.022 | [4] 0.053 | [5] -0.02 | [6] -0.034 | [7] 0.008 | [8] -0.011

USP1 (UniProt O94782)
inactive: ibrutinib 0.018 | [1] 0.011 | ralimetinib 0.04 | [2] 0.007 | [3] -0.001 | [4] -0.023 | [5] -0.029 | [6] 0.006 | [7] 0.043 | [8] -0.06

USP47 isoform 4 (UniProt Q96K76)
inactive: ibrutinib 0.014 | [1] 0.009 | ralimetinib 0.017 | [2] 0.016 | [3] -0.01 | [4] -0.006 | [5] -0.025 | [6] -0.001 | [7] 0.002 | [8] 0.005

2 records drawn at random from the list so far:
USP9X (UniProt Q93008)
inactive: ibrutinib -0.003 | [1] 0.001 | ralimetinib 0.025 | [2] -0.024 | [3] -0.032 | [4] -0.008 | [5] 0.009 | [6] -0.021 | [7] 0.043 | [8] 0.011

UHRF1BP1 (UniProt Q6BDS2)
inactive: ibrutinib 0 | [1] -0.05 | ralimetinib 0.052 | [2] 0.038 | [3] 0.022 | [4] 0.053 | [5] -0.02 | [6] -0.034 | [7] 0.008 | [8] -0.011

Remaining list, next part.

USP32 (UniProt Q8NFA0)
inactive: ibrutinib -0.035 | [1] 0.014 | ralimetinib 0.005 | [2] -0.026 | [3] -0.041 | [4] -0.045 | [5] 0.017 | [6] 0.002 | [7] 0.052 | [8] 0.006

UHRF1 isoform 2 (UniProt Q96T88)
inactive: ibrutinib 0.013 | [1] -0.043 | ralimetinib 0.06 | [2] 0.062 | [3] 0.02 | [4] -0.021 | [5] -0.06 | [6] 0.018 | [7] 0.073 | [8] 0.006

UROS (UniProt P10746)
inactive: ibrutinib 0.008 | [1] 0.033 | ralimetinib -0.01 | [2] 0.019 | [3] 0 | [4] -0.013 | [5] 0.003 | [6] -0.029 | [7] -0.008 | [8] 0.023

UFC1 (UniProt Q9Y3C8)
inactive: ibrutinib 0.05 | [1] -0.019 | ralimetinib -0.021 | [2] 0.01 | [3] -0.014 | [4] -0.021 | [5] -0.019 | [6] -0.002 | [7] 0.012 | [8] -0.003

USP14 (UniProt P54578)
inactive: ibrutinib 0.002 | [1] -0.003 | ralimetinib -0.024 | [2] -0.014 | [3] 0.008 | [4] -0.017 | [5] 0.001 | [6] -0.008 | [7] -0.001 | [8] -0.01

UGT8 (UniProt Q16880)
inactive: ibrutinib -0.014 | [1] -0.044 | ralimetinib 0.037 | [2] -0.067 | [3] -0.088 | [4] 0.072 | [5] -0.155 | [6] 0.098 | [7] -0.043 | [8] -0.06

UGP2 (UniProt Q16851)
inactive: ibrutinib -0.021 | [1] -0.007 | ralimetinib -0.008 | [2] -0.018 | [3] -0.007 | [4] -0.016 | [5] -0.006 | [6] 0 | [7] -0.014 | [8] 0

USO1 isoform 2 (UniProt O60763)
inactive: ibrutinib -0.018 | [1] -0.009 | ralimetinib 0.009 | [2] -0.028 | [3] -0.034 | [4] -0.001 | [5] -0.005 | [6] 0.024 | [7] 0.004 | [8] 0

UFSP2 (UniProt Q9NUQ7)
inactive: ibrutinib 0.004 | [1] -0.005 | ralimetinib 0.023 | [2] -0.004 | [3] -0.023 | [4] 0.01 | [5] 0.005 | [6] -0.036 | [7] -0.003 | [8] -0.006

UQCRFS1 (UniProt P47985)
inactive: ibrutinib -0.003 | [1] -0.001 | ralimetinib -0.061 | [2] -0.033 | [3] -0.017 | [4] -0.026 | [5] 0.017 | [6] -0.015 | [7] -0.023 | [8] -0.002

USP24 (UniProt Q9UPU5)
inactive: ibrutinib -0.01 | [1] 0.009 | ralimetinib 0.02 | [2] -0.002 | [3] -0.031 | [4] 0.013 | [5] 0.029 | [6] -0.008 | [7] 0.009 | [8] 0.016

VAMP7 (UniProt P51809)
inactive: ibrutinib -0.036 | [1] -0.004 | ralimetinib 0.005 | [2] 0.009 | [3] -0.004 | [4] 0.009 | [5] 0.039 | [6] -0.003 | [7] -0.004 | [8] -0.018

VAPA isoform 2 (UniProt Q9P0L0)
inactive: ibrutinib 0.01 | [1] -0.008 | ralimetinib -0.014 | [2] 0 | [3] -0.009 | [4] 0.014 | [5] 0.011 | [6] 0.023 | [7] -0.022 | [8] -0.035

VIM (UniProt P08670)
inactive: ibrutinib 0.006 | [1] 0.004 | ralimetinib 0.004 | [2] 0.005 | [3] -0.003 | [4] -0.007 | [5] 0.032 | [6] -0.02 | [7] -0.007 | [8] -0.012

UIMC1 (UniProt Q96RL1)
inactive: ibrutinib 0.015 | [1] -0.012 | ralimetinib 0.025 | [2] 0.033 | [3] 0.011 | [4] 0.023 | [5] -0.038 | [6] -0.007 | [7] 0.038 | [8] -0.011

UTP3 (UniProt Q9NQZ2)
inactive: ibrutinib 0.053 | [1] 0.001 | ralimetinib 0.055 | [2] -0.051 | [3] -0.058 | [4] 0.026 | [5] -0.123 | [6] -0.016 | [7] -0.023 | [8] -0.018

USP16 (UniProt Q9Y5T5)
inactive: ibrutinib -0.027 | [1] -0.035 | ralimetinib -0.001 | [2] 0.011 | [3] 0.017 | [4] 0 | [5] -0.06 | [6] -0.027 | [7] -0.012 | [8] 0.019

UPF1 (UniProt Q92900)
inactive: ibrutinib 0.005 | [1] -0.005 | ralimetinib -0.005 | [2] -0.008 | [3] 0.013 | [4] -0.001 | [5] -0.025 | [6] 0.026 | [7] -0.009 | [8] 0

VCL (UniProt P18206)
inactive: ibrutinib 0.006 | [1] -0.003 | ralimetinib -0.013 | [2] -0.023 | [3] -0.018 | [4] -0.005 | [5] -0.003 | [6] 0.027 | [7] -0.014 | [8] -0.024

USP5 isoform 2 (UniProt P45974)
inactive: ibrutinib 0 | [1] -0.007 | ralimetinib -0.005 | [2] -0.007 | [3] -0.01 | [4] -0.02 | [5] 0.002 | [6] -0.009 | [7] 0.017 | [8] -0.006

VAT1 (UniProt Q99536)
inactive: ibrutinib 0.001 | [1] 0.006 | ralimetinib -0.019 | [2] -0.021 | [3] -0.021 | [4] -0.021 | [5] -0.013 | [6] 0.008 | [7] 0.002 | [8] -0.007

UROD (UniProt P06132)
inactive: ibrutinib 0.028 | [1] 0 | ralimetinib 0.023 | [2] 0.016 | [3] -0.034 | [4] -0.037 | [5] 0.011 | [6] 0.02 | [7] -0.022 | [8] -0.024

VAMP3 (UniProt Q15836)
inactive: ibrutinib -0.044 | [1] -0.006 | ralimetinib 0.043 | [2] 0.056 | [3] 0.012 | [4] 0.03 | [5] 0.013 | [6] 0.164 | [7] -0.027 | [8] 0.002

VARS2, A0A0G2JL52
inactive: ibrutinib 0.024 | [1] 0.012 | ralimetinib -0.042 | [2] -0.056 | [3] -0.022 | [4] -0.09 | [5] -0.007 | [6] -0.021 | [7] -0.006 | [8] -0.005

VCX3B (UniProt Q9H321)
inactive: ibrutinib -0.052 | [1] -0.045 | ralimetinib 0.001 | [2] 0.07 | [3] -0.04 | [4] 0.048 | [5] 0.067 | [6] 0.001 | [7] 0.113 | [8] -0.019

— the supplement of paper PMC10849652
